Values joined by “and” are separate entries in the source; they are usually repeats but may differ in a detail not shown here. Equal entries are not always repeated. Out of some 580,000 compounds screened, about 6,100 (1.1%) were called active. Inconclusive results, whose numbers are uncertain, are shown with a selection of clear calls. Calls follow the shape of the dose curve; as a rule, active = well fitted inhibition curve with a large enough effect; inconclusive = small, poorly fitted or top-dose-only effect, or another doubt; inactive = no such curve, though single readings can be large or run the other way. Where the call is inconclusive, the potency comes from a doubtful curve fit.
target: Polyunsaturated fatty acid lipoxygenase ALOX12 (Homo sapiens) (UniProt P18054); assay: Primary qHTS assay for inhibitors of human arachidonate 12S-lipoxygenase (ALOX12): Round 2; conditions: purified 12hLO, xylenol orange hydroperoxide absorbance; activity change, negative = inhibition: at 108 µM (top of the series)
Procedure, shortened: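 Hydroperoxide product was detected by ferrous iron/xylenol orange as the 573 to 405 nm absorbance ratio. Arachidonic acid at 40 uM (final) was turned over for 30 min at room temperature by 150 nM human 12hLO, pH 7.0 Hepes buffer, after 15 min compound preincubation.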
% is scaled to controls: 0 for no effect and ±100 for the full control effect; potency is read from the fitted curve at half-maximal effect.

Sequences of proteins named here, by UniProt entry; tags and fusion partners are left off. A change or cut given only in a name is not applied to a line headed by its entry.
UniProt P18054: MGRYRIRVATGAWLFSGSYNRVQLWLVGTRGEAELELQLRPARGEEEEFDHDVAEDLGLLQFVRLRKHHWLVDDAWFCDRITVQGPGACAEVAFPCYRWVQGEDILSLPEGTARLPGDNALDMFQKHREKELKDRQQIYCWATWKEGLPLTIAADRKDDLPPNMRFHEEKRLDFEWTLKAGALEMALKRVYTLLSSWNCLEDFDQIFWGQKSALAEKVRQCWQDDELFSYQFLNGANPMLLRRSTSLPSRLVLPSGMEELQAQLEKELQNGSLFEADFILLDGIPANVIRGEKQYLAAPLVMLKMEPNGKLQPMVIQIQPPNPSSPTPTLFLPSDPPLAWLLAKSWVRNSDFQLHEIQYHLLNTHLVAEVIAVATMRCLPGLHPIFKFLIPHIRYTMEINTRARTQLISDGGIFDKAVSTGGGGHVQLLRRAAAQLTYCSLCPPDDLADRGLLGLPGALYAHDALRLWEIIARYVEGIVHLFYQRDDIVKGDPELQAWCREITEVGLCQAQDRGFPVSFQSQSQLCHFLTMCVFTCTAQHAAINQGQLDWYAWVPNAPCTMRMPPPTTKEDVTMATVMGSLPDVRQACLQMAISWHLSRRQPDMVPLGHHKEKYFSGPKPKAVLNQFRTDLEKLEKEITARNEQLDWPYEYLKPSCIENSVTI

| Compound | activity change, negative = inhibition | Potency |
| --- | --- | --- |
| O=c1cc[se]c2ccccc12 | inactive: -7.02% | – |
| COc1cc2c(cc1-c1ccc(O)c(F)c1)NC(=O)C21CCN(C(C)=O)CC1 | inactive: 16.6% [at 176 µM] | – |
| CCC(C)n1c(O)c(C=Nc2cccc(C(F)(F)F)c2)c(=O)[nH]c1=S (stereo not drawn) | – | inconclusive: 39.8 µM [inhibitor, partial curve] |
| c1ccc2c(CCNCC3CCCCC3)c[nH]c2c1 | inactive: -11% | – |
| Oc1ccccc1CN(CCc1ccccc1)Cc1ccccc1 | – | inconclusive: 0.199 µM [inhibitor, full curve, poor fit] |
| COC(=O)C1=C(c2cc3ccccc3o2)C[C@@H]2CC[C@H]1N2C(=O)NCc1ccc(F)cc1 | – | inconclusive: 3.55 µM [inhibitor, full curve, poor fit] |
| O=c1[nH]c(=S)[nH]c(O)c1N=Nc1ccc2c(c1)OCO2 | – | inconclusive: 56.2 µM [inhibitor, partial curve, poor fit] |
| O=[N+]([O-])c1cc(O)c(O)c([N+](=O)[O-])c1 | – | inconclusive: 1.12 µM [inhibitor, full curve, poor fit] and inconclusive: 1 µM [inhibitor, full curve] |
| Nc1cccc(-c2cn(C[C@H]3CC4CCN3C[C@@H]4C(=O)NC3CCCCC3)nn2)c1 (stereo partly drawn) | inactive: 74.9% [at 176 µM] | – |
| Cc1[nH]c2c(C)cccc2c1C(O)CN1CCCCC1 (stereo not drawn) | – | inconclusive: 44.7 µM [inhibitor, partial curve, poor fit] |
| Fc1ccc(CN2CCN(c3ccc(Cl)cc3)CC2)cc1 | inactive: 2.45% | – |
| O=C(N/N=C/c1c(O)n(C2CC2)c(=S)[nH]c1=O)c1ccccc1O | – | inconclusive: 44.7 µM [inhibitor, partial curve, poor fit] |
| Cn1cc(/C=C/c2nc3ccccc3c(=O)n2-c2ccccc2)c2ccccc21 | – | inconclusive: 56.2 µM [inhibitor, partial curve, poor fit] |
| COc1cc2c(cc1Oc1cccc(N(C)C)c1)NC(=O)C21CCN(C(=O)CN2CCOCC2)CC1 | – | inconclusive: 100 µM [inhibitor, partial curve, poor fit] |
| Nc1c2c(nc3ccccc13)CCN(Cc1ccccc1)C2 | – | inconclusive: 2.24 µM [inhibitor, partial curve, poor fit] |
| CN(CC(=O)Nc1ccccc1-c1ccccc1)C1CCCCC1 | – | inconclusive: 2 µM [inhibitor, full curve, poor fit] |
| O=C(Nc1ccc2c(c1)OCO2)c1cccn(Cc2cccc(F)c2)c1=O | – | inconclusive: 100 µM [inhibitor, partial curve, poor fit] |
| CC[C@H]1CN2CC[C@H]1C[C@@H]2CNC(=O)Nc1ccc(Oc2ccccc2)cc1 | – | inconclusive: 50.1 µM [inhibitor, partial curve] |

Exported field by field: entries from further up.
O=[N+]([O-])c1cc(O)c(O)c([N+](=O)[O-])c1
  Potency: inconclusive: 1.12 µM [inhibitor, full curve, poor fit] and inconclusive: 1 µM [inhibitor, full curve]
Nc1cccc(-c2cn(C[C@H]3CC4CCN3C[C@@H]4C(=O)NC3CCCCC3)nn2)c1 (stereo partly drawn)
  activity change, negative = inhibition: inactive: 74.9% [at 176 µM]

— PubChem BioAssay AID1671190 (National Center for Advancing Translational Sciences (NCATS), 2021)
